Source: patent EP4480965A1, “TRANSFERRIN RECEPTOR-BINDING MOLECULES, CONJUGATES THEREOF AND THEIR USES TO PREVENT OR TREAT CNS DISEASES” (Vect-Horus, priority 2023, dated 2024)
These are yes or no findings as the source states them, for the method shown. Some results given as binding are weak or reduced against the parent protein; the word gives no strength. For some assays here: Where a sequence is shown, tags or fusion partners need not be part of it. Values belong to the binder of their own block, whether it stands above or below them.

Legend:
[1] = target: murine TfR expressed by murine neuroblastoma Neuro-2a cells (mouse) (UniProt Q62351); assay: competition with C5-Alexa680 on living Neuro-2a cells, flow cytometry
[2] = target: human transferrin receptor fused to EGFP, expressed on CHO cells (human) (UniProt P02786); assay: flow cytometry, CHO-hTfR-EGFP cells (Figure 15A legend)
[3] = target: human transferrin receptor fused to EGFP, expressed on CHO cells (human) (UniProt P02786); assay: flow cytometry, CHO-hTfR-GFP cells, anti-6His
[4] = target: human transferrin receptor fused to EGFP, expressed on CHO cells (human) (UniProt P02786); assay: flow cytometry, CHO-hTfR-EGFP cells

B1: C5-siSOD1m-5'VP (protein)
VHH: EVQLVESGGGVVQPGGSLKLSCVASGTDFSINFIRWYRQAPGKQREFVAGFTATGNTNYADSMKGRFTISRDNTKNAVYLQIDSLKPEDTAVYYCYMLDKWGQGTQVTVSSAAAEQKLISEEDLNGAAHHHHHHGS
modifications: siSOD1m-5'VP siRNA (SEQ ID NOs 465/466) linked by a stable linker to the tag
binding [1]: binds

B3: B8-MALAT1-ASO (protein)
VHH: EVQLVESGGGVVQPGGSLRLSCAASGEIFSINFMRWYRQAPGKQREWVAGFTRDGSTNYPDSAKGRFTISRDNAKNTVYLQIDSLKPEDTAVYYCYMLDTWGQGTQVTVSSAAAEQKLISEEDLNGAAHHHHHHGS
modifications: MALAT1 antisense oligonucleotide (SEQ ID NO 405) linked to the tag
binding [1]: binds

Further lines, results first:

binding [2]: binds
binding [3]: binds
B2: VHH B-siGFPst1 bioconjugate (protein)
VHH: EVQLVESGGGVVQPGGSLRLSCAASGEIFSINFMRWYRQAPGKQREWVAGFTRDGSTNYPDSAKGRFTISRDNAKNTVYLQIDSLKPEDTAVYYCYMLDTWGQGTQVTVSSAAAEQKLISEEDLNGAAHHHHHHGS
modifications: siGFPst1 siRNA linked to the Gln of the C-terminal Q-tag

binding [4]: binds
B4: VHH D (H3) (VHH)
VHH: EVQLVESGGGEVQPGGSLKLSCVASGTDFSINFVRWYRQRPGKQREWVAGFTANGDTNYPDSMKGRFTISRDNAKNTVYLQINSLKSEDTAVYYCYMLDNWGQGTQVTVSS
